The text below walks through data of PubChem BioAssay AID493014 (National Center for Advancing Translational Sciences (NCATS), 2011).

Some of the results follow. Shown are side measurements of this screen, not its main read-out; they come without a call. Compounds called inactive in the main read-out are mostly missing here. The note in brackets gives the kind of curve behind each potency; many fits are weak.

A short description of the assay: qHTS Assay to Find Inhibitors of Chronic Active B-Cell Receptor Signaling. As to conditions: ABC-DLBCL IkBa-CBG/CBR reporter, luminescence ratio (green luciferase fused to IkBa over red control in TMD8 lymphoma cells), 4 h. An outline of the steps:
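Concentration-response series (up to 46 uM) were applied to TMD8 dual-reporter cells for 4 h at 37C with doxycycline. Green/red ratio, after filter-overlap correction, defined %Activity; red signal alone was normalised to basal cells and zero luminescence.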

[1] abbreviates: measured here: CBR red luminescence, cell number.
The mark [2] stands for this setting: measured here: IkBa-CBG green luminescence.

For `COc1ccccc1-c1nn2c(=O)cc(C)nc2s1`, under setting [1], the AC50 – broadly, the midpoint of the concentration-response curve, whichever way the signal moves – is 0.411 µM [falling, partial curve, poor fit].
The same measure, in the same setting: with `Cc1nc2cc(-c3ccc(Cl)cc3)nn2c(C)c1CCC(=O)NCc1ccco1` the figure was 0.366 µM [falling, full curve]; with `CNC(=S)N/N=C/c1c(C(=O)OC)cnn1-c1ccc(F)cc1F`, 8.91 µM [falling, partial curve].
Same read-out and setting: with `COc1ccc(NC(=S)Nc2ccc(OC)cc2OC)c(OC)c1` the figure was 29.1 µM [rising, partial curve, poor fit].
For the molecule `CC(C)CCNC(=O)c1cc2c(=O)n3ccccc3nc2s1`, the AC50 under setting [1] was 7.08 µM [rising, full curve, poor fit].
`Cc1nnc2sc(-c3csc4c3CCCC4)nn12`: under setting [2], the AC50 was 25.9 µM [falling, partial curve, poor fit].
For the molecule `Cc1cc(C)c2c(=O)[nH]c(SCC(=O)NCc3ccccc3)nc2n1`, the AC50 under setting [1] is 29.1 µM [falling, single point].
For the molecule `CC(c1ccccc1)C1CC(=O)N(CC(=O)O)C1=O` (stereo not given), the AC50 under setting [1] is 29.1 µM [falling, single point].
Consider `N#C/C(=C(/O)c1cccc(F)c1)c1nc2ccccc2s1`, for which the AC50 under setting [1] is 0.562 µM [falling, full curve].
On to `Cc1cc(=O)n2c(n1)NC(=NCc1ccccc1)NC2c1ccccc1` (stereo not given), for which the half-maximal activity concentration (AC50) is, setting by setting: under setting [1], 25.1 µM [falling, single point]; under setting [2], 0.794 µM [rising, full curve, poor fit].
`Cc1ccc(OCCn2c(=O)cnc3ccccc32)cc1`: the AC50 is 25.9 µM [rising, single point] under setting [1] and 20.6 µM [falling, single point] under setting [2].
Take `CNC(=O)c1cc(C(=O)c2ccc(Cl)cc2)c(Br)[nH]1`: the concentration at half-maximal activity (AC50) under setting [1] was 6.31 µM [rising, full curve, poor fit].
Still for that read-out and setting: with `CC(=O)c1cccc(Nc2nc(-c3ccccc3)cs2)c1` the figure was 35.5 µM [falling, single point].
On to `Cc1c(-c2ccccc2)nc2ccccc2c1C(=O)O`, for which the AC50 under setting [1] was 0.164 µM [rising, full curve, poor fit].
In the case of `CC(C)(C)NC(=O)NC(=O)COC(=O)c1nc(-c2ccccc2)n(-c2cccc(C(F)(F)F)c2)n1`, the concentration at half-maximal activity (AC50) under setting [1] is 7.31 µM [rising, partial curve].
Still for that read-out and setting: with `CC(C)n1c(=S)[nH]c2cc(C(F)(F)F)ccc21` the figure was 0.891 µM [rising, full curve, poor fit]; with `CC(C)CC(=O)NC(=S)Nc1ccc(NC(=O)c2ccco2)cc1`, 23.1 µM [rising, single point]; with `O=[N+]([O-])c1ccc(COc2ccc(Br)cc2CN2CCOCC2)cc1`, 3.98 µM [rising, partial curve].
